The values that follow come from patent US20180002425A1.

Sequences of proteins named here, by UniProt entry; tags and fusion partners are left off. Residues count along the entry.
UniProt Q08351, residues 26-482: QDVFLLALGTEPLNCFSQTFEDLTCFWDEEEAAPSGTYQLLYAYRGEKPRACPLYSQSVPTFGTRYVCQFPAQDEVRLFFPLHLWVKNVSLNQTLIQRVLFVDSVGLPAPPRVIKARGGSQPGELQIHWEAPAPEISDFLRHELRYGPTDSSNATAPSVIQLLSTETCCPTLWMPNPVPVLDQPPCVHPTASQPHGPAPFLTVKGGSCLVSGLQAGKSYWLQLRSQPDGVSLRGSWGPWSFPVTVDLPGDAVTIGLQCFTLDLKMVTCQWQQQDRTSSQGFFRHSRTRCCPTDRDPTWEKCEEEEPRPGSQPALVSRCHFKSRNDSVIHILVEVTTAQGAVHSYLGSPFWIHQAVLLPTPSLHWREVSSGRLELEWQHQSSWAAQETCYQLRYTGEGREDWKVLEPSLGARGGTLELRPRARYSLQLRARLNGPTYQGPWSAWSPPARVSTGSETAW

These are yes or no findings as the source states them, for the method shown. Some results given as binding are weak or reduced against the parent protein; the word gives no strength.

The target in test [1] is T1, granulocyte colony stimulating factor receptor (UniProt Q99062).
T1 sequence (looked up): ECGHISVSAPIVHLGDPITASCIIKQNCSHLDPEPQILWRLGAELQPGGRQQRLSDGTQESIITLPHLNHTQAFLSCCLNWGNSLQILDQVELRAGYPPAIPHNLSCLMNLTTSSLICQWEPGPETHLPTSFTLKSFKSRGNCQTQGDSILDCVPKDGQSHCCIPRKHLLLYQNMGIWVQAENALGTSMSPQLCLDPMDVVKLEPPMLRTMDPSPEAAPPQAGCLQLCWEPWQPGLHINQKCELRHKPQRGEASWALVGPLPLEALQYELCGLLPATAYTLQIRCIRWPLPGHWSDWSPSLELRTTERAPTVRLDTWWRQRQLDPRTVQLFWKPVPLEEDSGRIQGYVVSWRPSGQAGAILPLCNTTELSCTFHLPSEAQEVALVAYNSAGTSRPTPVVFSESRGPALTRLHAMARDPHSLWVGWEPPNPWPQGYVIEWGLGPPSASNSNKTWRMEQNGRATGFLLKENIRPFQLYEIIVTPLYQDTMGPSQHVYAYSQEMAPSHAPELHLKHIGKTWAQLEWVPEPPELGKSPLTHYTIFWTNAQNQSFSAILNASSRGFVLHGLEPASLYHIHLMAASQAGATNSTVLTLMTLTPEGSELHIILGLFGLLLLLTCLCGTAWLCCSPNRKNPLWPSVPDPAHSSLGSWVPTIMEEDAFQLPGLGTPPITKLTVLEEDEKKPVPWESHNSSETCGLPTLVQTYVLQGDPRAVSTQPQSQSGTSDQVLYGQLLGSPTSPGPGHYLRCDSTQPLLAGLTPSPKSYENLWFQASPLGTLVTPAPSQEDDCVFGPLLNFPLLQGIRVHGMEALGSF
Put plainly: western blot of control and CD114 (G-CSFR) transfected samples, probed with 3B3.

Test [2] has as its target T1, granulocyte colony stimulating factor receptor. As to the kind of experiment: western blotting and FACS.
Test [3] shares this target. As to the kind of experiment: figure legend (FIG. 11).
Test [4] addresses mouse TpoR (mouse) (UniProt Q08351). As to the kind of experiment: immunochemical studies (not detailed).

B1: 3B3 anti-G-CSFR agonist antibody (Fc fusion, not shown: a dimerising Fc or GST)
scFv: MAQVQLLESGPGLVKPSQTLSLTCTVSGGSISSGGYYWSWIRQPPGKGLEWIGYIYYSGSTNYNPSLKSRVTISVDTSKNQFSLKLSSVTAADTAVYYCARWNGVNNAFDIWGQGTLVTVSSGGGGSGGGGSGGGGSDIQMTQSPSSVSASVGDRVTITCRASQGISSWLAWYQQKPGKAPKLLIYAASSLQSGVPSRFSGSGWGTELTLTISSLQPEDFATYYCLQHNTYPFTFGQGTKVTVLG
In the case of B1, the binding entry in test [1], in test [2] and in test [3] was “binds” in each case.

B2: 3D9 TpoR agonist antibody (Fc fusion, not shown: a dimerising Fc or GST)
scFv: MAQVQLVQSGAEVRKVGSSVKVSCKASRDTFNTYGISWVRQAPGQGLEWMGGIIPIFGTADYAQKFRGRVTITADESTSTAYMELSSLRSEDTAVYYCARDRKLGGSDYWGQGTLVTVSSGGGGSGGGGSGGGGSDIVMTQSPSSVSASVGDKVTITCRASQGLGRWLAWYQQEPGKAPKLLIYAASTLQRGVPSRFSGSGSGTDFTLTISSLQPEDFATYYCQQSNSFPWTFGQGTKLEIKR
Turning to B2, in test [4], the binding result was “binds”.
